Measurements from “University of Dundee, Small-Polar-MMV Screening Library” (2021), ChEMBL document CHEMBL3988442.

Protein sequences, listed by entry. Tags and fused reporters are not part of them.
UniProt E9BF75, entry or part of it: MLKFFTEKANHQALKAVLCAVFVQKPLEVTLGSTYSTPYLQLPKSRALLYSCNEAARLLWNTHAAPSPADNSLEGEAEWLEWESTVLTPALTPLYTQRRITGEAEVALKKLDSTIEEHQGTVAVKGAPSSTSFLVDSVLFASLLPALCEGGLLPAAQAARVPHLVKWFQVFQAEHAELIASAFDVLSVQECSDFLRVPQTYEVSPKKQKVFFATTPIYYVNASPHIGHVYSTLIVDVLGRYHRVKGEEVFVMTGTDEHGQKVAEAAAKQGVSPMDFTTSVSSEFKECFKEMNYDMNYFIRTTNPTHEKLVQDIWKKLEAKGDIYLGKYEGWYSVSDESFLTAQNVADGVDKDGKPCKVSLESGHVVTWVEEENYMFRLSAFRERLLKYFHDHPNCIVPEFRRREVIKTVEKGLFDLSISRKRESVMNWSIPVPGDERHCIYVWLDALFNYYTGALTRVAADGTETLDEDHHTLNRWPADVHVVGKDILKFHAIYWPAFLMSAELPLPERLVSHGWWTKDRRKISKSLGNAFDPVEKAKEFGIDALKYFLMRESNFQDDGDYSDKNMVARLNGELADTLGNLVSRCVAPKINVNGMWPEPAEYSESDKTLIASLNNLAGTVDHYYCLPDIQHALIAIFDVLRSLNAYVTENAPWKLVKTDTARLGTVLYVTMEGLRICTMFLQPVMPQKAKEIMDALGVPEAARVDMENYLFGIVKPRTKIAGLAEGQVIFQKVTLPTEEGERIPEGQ

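Methionyl-tRNA synthetase (putative), Leishmania donovani (UniProt E9BF75). Primary screen of methionyl-tRNA synthetase; the read-out is not stated. The test concentration is not given. The values are filed as inhibition. Size under these conditions: about 68,000 compounds, about 24 of them at 50% or above in at least one test.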

All values are in %.
The controls that fix the scale are not given in the record; negative values are as filed.
The compounds are a random part of those screened.

| compound | inhibition |
|---|---|
| `CCC(=O)N1CCCc2c(cnn2C)C1` | 9.627% |
| `O=C(Nc1ccc(Cl)cn1)C1CCCN(Cc2ccccn2)C1` (centres unmarked) | 15.22% |
| `O=C(c1n[nH]c(=O)c2ccccc12)N1CCCC1Cn1cccn1` (centres unmarked) | 10.82% |
| `CC(C)CS(=O)(=O)CC(=O)N(C)Cc1ccc(OC(F)F)cc1` | 9.783% |
| `CC(C)COC(=O)N1CCCN(C(C)c2nc(C(C)C)no2)CC1` (centres unmarked) | 11.11% |
| `O=C(Nc1ccccc1)c1ccc(NCc2ccncc2)nn1` | 15.04% |
| `O=C(C1CC1)N(Cc1ccc2cc[nH]c2c1)C1CC1` | 17% |
| `c1ccc(-c2nc(CCNCc3ccncc3)co2)cc1` | -8.309% |
| `Cc1nnc(CN(Cc2cccc(Cl)c2)C(C)C)o1` | 11.5% |
| `CN(C)C(=O)N1CC(=O)NCC12CCN(C(=O)c1ccco1)C2` (centres unmarked) | 6.667% |
| `CC(C)(C)c1n[nH]c(C2CN(Cc3nnc(C4CC4)o3)CCO2)n1` (centres unmarked) | 12.68% |
| `Cc1nc2n(n1)CC(NCc1c(Cl)ccc3cccnc13)CC2` (centres unmarked) | 8.123% |
| `COC(=O)CC1c2cccnc2C(=O)N1Cc1ccccc1` (centres unmarked) | 8.378% |
| `Cc1ccc(C(=O)Nc2ccc(OC3CCN(C)CC3)cc2)c(C)c1` | 8.027% |
| `O=C(NCCCN1CCCCC1)c1n[nH]c(=O)c2ccccc12` | 11.45% |
| `CC(C)CNC(=O)[C@H]1C[C@@H]2CN(C(=O)NCC3CCCCC3)C[C@H]1O2` | 19.2% |
| `Cc1cc2ccccc2n1CC(=O)Nc1ccnn1CC1CCOC1` (centres unmarked) | 6.479% |
| `Cc1occc1C(=O)N1CCn2c(COCC3CC3)cnc2C1C` (centres unmarked) | 9.804% |
| `CC(O)CN(CC(=O)NC1CCCCC1)c1ccccc1` (centres unmarked) | 3.78% |
| `COC[C@]1(O)CCN(C2CCN(c3ccc(Cl)cc3)CC2)CC1(C)C` | 7.5% |
| `Cc1ccc(-c2cc(N)c(=O)n(CC(=O)NCC3CCCCC3)n2)s1` | 13.36% |
| `O=C(NCCC1=CCCCC1)C1CCCN(c2ccc3nncn3n2)C1` (centres unmarked) | 2.222% |
| `COc1ccc(C)cc1C(C(=O)O)N1CCN(Cc2ccccn2)CC1` (centres unmarked) | 10.44% |
| `COc1ccc(S(=O)(=O)NC2(CC(N)=O)CCC2)cc1` | 2.778% |
| `CCCN1CCC(CNC(=O)N2CCCC2c2c(C)n[nH]c2C)CC1` (centres unmarked) | 8.58% |
| `CCN(CC)C(CNC(=O)c1c(C)noc1C(C)C)c1ccsc1` (centres unmarked) | 10.56% |
| `CN(C)c1ccc(NC(=O)N2CCCCCC2c2ccncc2)cn1` (centres unmarked) | 7.67% |
| `Cc1ccc(CN2CC[C@H]3NC(=O)CC[C@@H]32)o1` | 16.81% |
| `N#Cc1ncn(CC(=O)N2CCCC2c2cccs2)n1` (centres unmarked) | -0.304% |
| `CCc1ncc(C(=O)N(CCOC)Cc2ccccc2F)cn1` | 9.067% |
| `CC(c1cccnc1)N1CCN(CCO)CC1` (centres unmarked) | 9.028% |
| `COc1ccc(CNC2CCN(c3ccccc3)C2)cc1O` (centres unmarked) | 10.34% |
| `CCc1nccn1C1CCCN(C(=O)c2ccn(C)c(=O)c2)C1` (centres unmarked) | 7.711% |
| `CCOCCN1C[C@@H]2CCCO[C@@H]2[C@H](NC(=O)c2cnoc2C)C1` | 9.302% |
| `CC(C)Oc1ncnc2c1CCN(Cc1ccoc1)CC2` | 6.189% |
| `CC(C)(C)C(=O)N1CCC(c2nc(O)cc(-c3ccccn3)n2)CC1` | 5.822% |
| `FC(F)CN1CCOC(Cn2cccn2)C1` (centres unmarked) | 22.4% |
| `CN(Cc1cccc(O)c1)C(=O)Nc1cccnc1N1CCCC1` | 11.43% |
| `C[C@H]1C[C@H]2CN(C(=O)C3=CCCCC3)CC[C@H]2O1` | 0% |
| `O=C(Cc1ccccn1)N1C[C@@H](Oc2cccnc2)[C@H]2OCCC[C@H]21` | 4.167% |
| `CC(C)NC(=O)C(NC(=O)N1CCN(c2ccc(Cl)cc2)CC1)C(C)C` (centres unmarked) | 18.65% |
| `O=C(Nc1cccc(F)c1)C1=NOC2(CCNCC2)C1` | 17.52% |
| `Cc1cn2nc(N3CCCCC3Cn3cccn3)sc2n1` (centres unmarked) | 15.85% |
| `CCc1ccsc1C(=O)N1CCCN(Cc2nccn2CC)CC1` | 16.32% |
| `COc1ccc(C(=O)N2C[C@@H](C(=O)O)[C@H](c3ccccc3)C2)c(C)c1` | 10.68% |
| `CCN(CC)C(=O)CN(C)CCn1nc2ccccn2c1=O` | -5.521% |
| `CN(C)C(=O)C1CN(Cc2ccccc2)CCN(S(C)(=O)=O)C1` (centres unmarked) | 18.84% |
| `Cc1ccc(CN2CCOC3(CCN(C(=O)C4CC=CC4)CC3)C2)cc1` | 11.42% |
| `Cn1ccnc1C(O)c1ccccc1N1CCN(Cc2ccsc2)CC1` (centres unmarked) | 4.688% |
| `O=C(NCc1ccccn1)[C@H]1COC[C@H]2CN(C3CCCC3)C[C@H]21` | -4.975% |
| `c1cn2c(n1)CO[C@@H](CNCc1ccc3c(c1)OCO3)C2` | 9.831% |
| `CN(Cc1nnc(-c2ccco2)o1)CC1CCCN1c1cccnn1` (centres unmarked) | 2.778% |
| `CNC(=O)c1ccc(-c2ccc(CNC(=O)COC)cc2)nc1C` | 9.841% |
| `CC(C)CC(C#N)NC(=O)COC1CCCCC1` (centres unmarked) | 13.46% |
| `Cc1cccc(C)c1OC1CN(Cc2cnn(C)c2)C1` | 18.4% |
| `CC1CCN(S(=O)(=O)N2CCCN(CC3CCCO3)CC2)CC1` (centres unmarked) | 15.33% |
| `CC1CN(C(=O)c2ccnc(-n3cncn3)c2)c2ccccc2S1` (centres unmarked) | 5.707% |
| `Cn1cnc2c(N3CCCC3)nc(C3CCN(CC4CC4)CC3)cc21` | 17.04% |
| `O=C(CN1CCOc2ccc(Cl)cc21)NCc1ncc[nH]1` | 18.05% |
| `CCN(CC1CN(Cc2nccn2CC)CCO1)c1cccnn1` (centres unmarked) | 14.85% |
| `CCN(CC)C(=O)CN1CCc2nc(C3CCNCC3)nc(NC)c2C1` | 14.89% |
| `O=C(NC1CCN(c2ccc(-c3ccccc3F)nn2)C1)c1ccc[nH]1` (centres unmarked) | 10.07% |
| `CCn1c(C(=O)N2CCN(C(=O)COC)CC2)cc2ccccc21` | 6.883% |
| `CCn1nc(C)c2ccn(CC(=O)NCC3CCCO3)c(=O)c21` (centres unmarked) | 9.577% |
| `O=C(O)c1cccnc1CN1CCCCC1CCc1cccc(O)c1` (centres unmarked) | 2.872% |